Survivor count and T/C data for 19 compounds are collected here from PubChem BioAssay AID328 (DTP/NCI, 2004).

The list shows only some results of the screen, not a fair sample: it gathers tests that were run many times, whatever their T/C, doses with no T/C, and many T/C values between a quarter and a half above the control. Further doses and runs are listed elsewhere. T/C is the treated group as % of the vehicle group. Some doses have a count of surviving animals in place of a T/C: the source holds a T/C of zero for them, seemingly a mark for toxic or unscored doses. Some doses without a T/C left all or most animals alive at the check, yet need not have been tolerated: the source hardly ever lists a survival T/C far under the control, and the zero likely stands for such cases as well. Survivors were counted at the toxicity check, usually on the fifth day, unless a day is given; later deaths do not show. Schedule codes are those of the source, taken here to give the interval after Q, in days (D) or hours (H), and the number of doses after X. Some doses were run more than once; the values are given in rising order. For survival time, the PubChem record calls one and a half times the control and up active, and a quarter to a half above the control has no call in these data; cut-offs in other NCI protocols can differ. Some schedule codes hold Z or #, which are not explained here. Some T/C values carry the count of animals alive at the toxicity check (mostly the fifth day); without a count, all were alive then.

The subject of the experiment is BDF1 mice, P388 leukemia ip, median survival T/C. Briefly: NCI In Vivo Anticancer Drug Screen. Data for tumor model P388 Leukemia (intraperitoneal) in B6D2F1 (BDF1) mice. The following applies: T/C endpoint: median survival time, higher T/C = longer survival. The procedure, abridged: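 Transplantable tumour in mice; compound vs vehicle dosing; survival scored; ratio of treated to control reported.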

Where [1] appears, read: dose: 150.0 mg/kg/injection, schedule: Q01DX009 (ip), vehicle: saline with Tween-80.
The mark [2] stands for this setting: dose: 50.0 mg/kg/injection, schedule: Q01DX009 (ip), vehicle: saline with Tween-80.
[3] abbreviates: dose: 100.0 mg/kg/injection, schedule: Q01DX009 (ip), vehicle: saline with Tween-80.
The mark [4] stands for this setting: dose: 100.0 mg/kg/injection, schedule: Q01DX009 (ip), vehicle: saline.
Setting [5] is: dose: 200.0 mg/kg/injection, schedule: Q01DX009 (ip), vehicle: saline.
Setting [6] is: dose: 200.0 mg/kg/injection, schedule: Q01DX009 (ip), vehicle: Klucel (hydroxypropylcellulose) (HPC).
Where [7] appears, read: dose: 50.0 mg/kg/injection, schedule: Q01DX009 (ip), vehicle: water.
[8] abbreviates: dose: 12.5 mg/kg/injection, schedule: Q01DX009 (ip), vehicle: Klucel (hydroxypropylcellulose) (HPC).

Regarding `COc1ccc2c(c[n+](C)c3c4cc5c(cc4ccc23)OCO5)c1OC`, the survivor count was 0 of 6 (dose: 20.0 mg/kg/injection, schedule: Q01DX010 (ip), vehicle: saline) and 0 of 6 (dose: 40.0 mg/kg/injection, schedule: Q01DX010 (ip), vehicle: saline).

For the compound `CN(C)CCC(=O)c1ccc(Cl)cc1`, under setting [1], the survivor count is given as 2 of 6.

Take `COc1cc(NC(=O)C(C)NC(=O)C(N)CCCCN)cc2ccccc12` (centres undefined): the survivor count (dose: 200.0 mg/kg/injection, schedule: Q01DX005 (ip), vehicle: suspension in saline) was 0 of 5.

Regarding `CCCCCCCCCC[N+](C)(C)CCC[N+](C)(C)CCCCCCCCCC`, the survivor count (dose: 12.5 mg/kg/injection, schedule: Q01DX009 (ip), vehicle: saline) is reported as 3 of 6; the survivor count under setting [2] is listed as 0 of 6; the survivor count under setting [3] is 0 of 6; the survivor count (dose: 200.0 mg/kg/injection, schedule: Q01DX009 (ip), vehicle: saline with Tween-80) is 0 of 6.

`CC([OH2+])CNCCN.CC([OH2+])CNCCN.O=S(=O)([O-])[O-].[Cu+2]` (centres undefined): the survivor count was 3 of 6 (dose: 50.0 mg/kg/injection, schedule: Q01DX009 (ip), vehicle: saline); 0 of 6 under setting [4]; 0 of 6 under setting [5].

`COc1cc(-c2ccc(NC(=O)NC3CC3)c(OC)c2)ccc1NC(=O)NC1CC1`: the survivor count (dose: 200.0 mg/kg/injection, schedule: Q01DX005 (ip), vehicle: saline with Tween-80) is 5 of 5.

For the compound `O=[N+]([O-])c1ccccc1N/N=C\c1c(Cl)[nH]c2ccccc12`, the survivor count (dose: 100.0 mg/kg/injection, schedule: Q04DX002 (ip), vehicle: Klucel (hydroxypropylcellulose) (HPC)) was 6 of 6.

With `CCS(=O)(=O)OCCCl`, the survivor count by setting is: (dose: 66.0 mg/kg/injection, schedule: Q01DX009 (ip), vehicle: saline) 6 of 6; under setting [6], 2 of 6; under setting [5], 4 of 6; (dose: 400.0 mg/kg/injection, schedule: Q04DX003 (ip), vehicle: saline) 0 of 6. Also, the T/C (dose: 150.0 mg/kg/injection, schedule: Q01DX009 (ip), vehicle: saline) was 136 % of control [5 of 6 alive].

With `CSc1ncc(C)c[n+]1-c1ccccc1`, the survivor count (dose: 200.0 mg/kg/injection, schedule: Q04DX002 (ip), vehicle: saline with Tween-80) is listed as 3 of 6.

As to `CC(=O)Nc1ccc(N=Nc2ccccc2)cc1F`, under setting [6], the T/C was 140 % of control.

For `O=c1[nH]c2ccccc2c(=O)n1C1CCCCC1`, the survivor count under setting [7] is 6 of 6.

With `O=C(Nc1ccccc1)Nc1nncs1`, the survivor count (dose: 25.0 mg/kg/injection, schedule: Q01DX009 (ip), vehicle: other) is on record as 6 of 6; the survivor count (dose: 50.0 mg/kg/injection, schedule: Q01DX009 (ip), vehicle: other) is on record as 6 of 6; the survivor count (dose: 100.0 mg/kg/injection, schedule: Q01DX009 (ip), vehicle: other) is 6 of 6; the survivor count (dose: 200.0 mg/kg/injection, schedule: Q01DX009 (ip), vehicle: other) is recorded as 5 of 6; the survivor count (dose: 400.0 mg/kg/injection, schedule: Q01DX009 (ip), vehicle: other) is listed as 6 of 6.

As to `O=C1NC(c2cccc(OCc3ccccc3)c2)Nc2ccccc21` (centres undefined), the survivor count (dose: 6.25 mg/kg/injection, schedule: Q01DX009 (ip), vehicle: Klucel (hydroxypropylcellulose) (HPC)) is 5 of 6 and the survivor count under setting [8] is given as 6 of 6. In addition, the T/C by setting is: under setting [8], 127 % of control; (dose: 125.0 mg/kg/injection, schedule: Q01DX009 (ip), vehicle: Klucel (hydroxypropylcellulose) (HPC)) 144 % of control.

On to `C[n+]1cc2ccccc2c2ccccc21`, for which the T/C is 126 % of control (dose: 25.0 mg/kg/injection, schedule: Q01DX009 (ip), vehicle: water) and 128 % of control (dose: 50.0 mg/kg/injection, schedule: Q04DX003 (ip), vehicle: water). Moreover, the survivor count reads like this: (dose: 40.0 mg/kg/injection, schedule: Q01DX009 (ip), vehicle: water) 3 of 6; under setting [7], 1 of 6 and 3 of 6; (dose: 100.0 mg/kg/injection, schedule: Q01DX009 (ip), vehicle: water) 0 of 6; (dose: 100.0 mg/kg/injection, schedule: Q04DX003 (ip), vehicle: water) 0 of 6.

For `O=C1C=C(NCc2ccccc2)CCC1`, the survivor count runs as follows: (dose: 12.5 mg/kg/injection, schedule: Q01DX009 (ip), vehicle: saline with Tween-80) 6 of 6; under setting [4], 3 of 6.

For the compound `CN1CCN(Cc2nc3cccc4c3c([n+]2[O-])-c2ccccc2-4)CC1`, the survivor count is listed as 3 of 10 (dose: 50.0 mg/kg/injection, schedule: Q03HX008 (oral), vehicle: saline with Tween-80); 6 of 10 (dose: 50.0 mg/kg/injection, schedule: Q03HX024 (oral), vehicle: saline with Tween-80); 4 of 10 (dose: 50.0 mg/kg/injection, schedule: Q03HX072 (oral), vehicle: saline with Tween-80); 6 of 10 (dose: 100.0 mg/kg/injection, schedule: Q03HX008 (ip), vehicle: saline with Tween-80); 5 of 10 (dose: 100.0 mg/kg/injection, schedule: Q03HX024 (oral), vehicle: saline with Tween-80); 6 of 10 (dose: 100.0 mg/kg/injection, schedule: Q03HX072 (oral), vehicle: saline with Tween-80). Also, the survivor count reads like this: (dose: 100.0 mg/kg/injection, schedule: Q06HX032 (ip), vehicle: saline with Tween-80) 5 of 10; under setting [1], 6 of 10; (dose: 150.0 mg/kg/injection, schedule: Q03HX072 (oral), vehicle: saline with Tween-80) 5 of 10; (dose: 200.0 mg/kg/injection, schedule: Q03HX008 (oral), vehicle: saline with Tween-80) 1 of 10; (dose: 200.0 mg/kg/injection, schedule: Q03HX072 (oral), vehicle: saline with Tween-80) 1 of 10. Also, the T/C is, setting by setting: (dose: 60.0 mg/kg/injection, schedule: Q03HX008 (ip), vehicle: saline with Tween-80) 125 % of control; (dose: 60.0 mg/kg/injection, schedule: Q03HX024 (ip), vehicle: saline with Tween-80) 136 % of control; (dose: 60.0 mg/kg/injection, schedule: Q06HX032 (ip), vehicle: saline with Tween-80) 142 % of control; (dose: 80.0 mg/kg/injection, schedule: Q03HX024 (ip), vehicle: saline with Tween-80) 140 % of control [9 of 10 alive]; (dose: 80.0 mg/kg/injection, schedule: Q06HX032 (ip), vehicle: saline with Tween-80) 148 % of control; under setting [3], 127 % of control [8 of 10 alive]. Further, the T/C runs as follows: (dose: 125.0 mg/kg/injection, schedule: Q01DX009 (ip), vehicle: saline with Tween-80) 136 % of control; (dose: 150.0 mg/kg/injection, schedule: Q01DX Z (ip), vehicle: saline) 139 % of control; (dose: 150.0 mg/kg/injection, schedule: Q03HX008 (oral), vehicle: saline with Tween-80) 127 % of control [9 of 10 alive]; (dose: 150.0 mg/kg/injection, schedule: Q03HX024 (oral), vehicle: saline with Tween-80) 139 % of control [8 of 10 alive]; (dose: 150.0 mg/kg/injection, schedule: Q08HX027 (oral), vehicle: saline with Tween-80) 134 % of control.

As for `COC1(c2ccc([N+](=O)[O-])o2)OC1(C)C` (centres undefined), the T/C by setting is: under setting [2], 130 % of control; under setting [3], 138 % of control [5 of 6 alive].

In the case of `COc1ccc(CNCC(=O)OCc2ccccc2)cc1`, the survivor count (dose: 400.0 mg/kg/injection, schedule: Q04DX003 (ip), vehicle: saline with Tween-80) is given as 2 of 6.

For the compound `CCOC(=O)C1NC(=S)NCC1=O` (centres undefined), the survivor count (dose: 400.0 mg/kg/injection, schedule: Q01DX009 (ip), vehicle: Klucel (hydroxypropylcellulose) (HPC)) is 1 of 3.
